Laboratory results from doi:10.1101/2024.10.10.617680.
Read-outs that look alike come from different tables or passages of the source. Results are given in words; binding and its absence hold for the method and conditions named. For part of these data: Binding seen in cells or lysates may run through a third protein. Some results given as binding are weak or reduced against the parent protein; the word gives no strength. Where a sequence is shown, tags or fusion partners need not be part of it.

Sequences of proteins named here, by UniProt entry; tags and fusion partners are left off.
UniProt P51587: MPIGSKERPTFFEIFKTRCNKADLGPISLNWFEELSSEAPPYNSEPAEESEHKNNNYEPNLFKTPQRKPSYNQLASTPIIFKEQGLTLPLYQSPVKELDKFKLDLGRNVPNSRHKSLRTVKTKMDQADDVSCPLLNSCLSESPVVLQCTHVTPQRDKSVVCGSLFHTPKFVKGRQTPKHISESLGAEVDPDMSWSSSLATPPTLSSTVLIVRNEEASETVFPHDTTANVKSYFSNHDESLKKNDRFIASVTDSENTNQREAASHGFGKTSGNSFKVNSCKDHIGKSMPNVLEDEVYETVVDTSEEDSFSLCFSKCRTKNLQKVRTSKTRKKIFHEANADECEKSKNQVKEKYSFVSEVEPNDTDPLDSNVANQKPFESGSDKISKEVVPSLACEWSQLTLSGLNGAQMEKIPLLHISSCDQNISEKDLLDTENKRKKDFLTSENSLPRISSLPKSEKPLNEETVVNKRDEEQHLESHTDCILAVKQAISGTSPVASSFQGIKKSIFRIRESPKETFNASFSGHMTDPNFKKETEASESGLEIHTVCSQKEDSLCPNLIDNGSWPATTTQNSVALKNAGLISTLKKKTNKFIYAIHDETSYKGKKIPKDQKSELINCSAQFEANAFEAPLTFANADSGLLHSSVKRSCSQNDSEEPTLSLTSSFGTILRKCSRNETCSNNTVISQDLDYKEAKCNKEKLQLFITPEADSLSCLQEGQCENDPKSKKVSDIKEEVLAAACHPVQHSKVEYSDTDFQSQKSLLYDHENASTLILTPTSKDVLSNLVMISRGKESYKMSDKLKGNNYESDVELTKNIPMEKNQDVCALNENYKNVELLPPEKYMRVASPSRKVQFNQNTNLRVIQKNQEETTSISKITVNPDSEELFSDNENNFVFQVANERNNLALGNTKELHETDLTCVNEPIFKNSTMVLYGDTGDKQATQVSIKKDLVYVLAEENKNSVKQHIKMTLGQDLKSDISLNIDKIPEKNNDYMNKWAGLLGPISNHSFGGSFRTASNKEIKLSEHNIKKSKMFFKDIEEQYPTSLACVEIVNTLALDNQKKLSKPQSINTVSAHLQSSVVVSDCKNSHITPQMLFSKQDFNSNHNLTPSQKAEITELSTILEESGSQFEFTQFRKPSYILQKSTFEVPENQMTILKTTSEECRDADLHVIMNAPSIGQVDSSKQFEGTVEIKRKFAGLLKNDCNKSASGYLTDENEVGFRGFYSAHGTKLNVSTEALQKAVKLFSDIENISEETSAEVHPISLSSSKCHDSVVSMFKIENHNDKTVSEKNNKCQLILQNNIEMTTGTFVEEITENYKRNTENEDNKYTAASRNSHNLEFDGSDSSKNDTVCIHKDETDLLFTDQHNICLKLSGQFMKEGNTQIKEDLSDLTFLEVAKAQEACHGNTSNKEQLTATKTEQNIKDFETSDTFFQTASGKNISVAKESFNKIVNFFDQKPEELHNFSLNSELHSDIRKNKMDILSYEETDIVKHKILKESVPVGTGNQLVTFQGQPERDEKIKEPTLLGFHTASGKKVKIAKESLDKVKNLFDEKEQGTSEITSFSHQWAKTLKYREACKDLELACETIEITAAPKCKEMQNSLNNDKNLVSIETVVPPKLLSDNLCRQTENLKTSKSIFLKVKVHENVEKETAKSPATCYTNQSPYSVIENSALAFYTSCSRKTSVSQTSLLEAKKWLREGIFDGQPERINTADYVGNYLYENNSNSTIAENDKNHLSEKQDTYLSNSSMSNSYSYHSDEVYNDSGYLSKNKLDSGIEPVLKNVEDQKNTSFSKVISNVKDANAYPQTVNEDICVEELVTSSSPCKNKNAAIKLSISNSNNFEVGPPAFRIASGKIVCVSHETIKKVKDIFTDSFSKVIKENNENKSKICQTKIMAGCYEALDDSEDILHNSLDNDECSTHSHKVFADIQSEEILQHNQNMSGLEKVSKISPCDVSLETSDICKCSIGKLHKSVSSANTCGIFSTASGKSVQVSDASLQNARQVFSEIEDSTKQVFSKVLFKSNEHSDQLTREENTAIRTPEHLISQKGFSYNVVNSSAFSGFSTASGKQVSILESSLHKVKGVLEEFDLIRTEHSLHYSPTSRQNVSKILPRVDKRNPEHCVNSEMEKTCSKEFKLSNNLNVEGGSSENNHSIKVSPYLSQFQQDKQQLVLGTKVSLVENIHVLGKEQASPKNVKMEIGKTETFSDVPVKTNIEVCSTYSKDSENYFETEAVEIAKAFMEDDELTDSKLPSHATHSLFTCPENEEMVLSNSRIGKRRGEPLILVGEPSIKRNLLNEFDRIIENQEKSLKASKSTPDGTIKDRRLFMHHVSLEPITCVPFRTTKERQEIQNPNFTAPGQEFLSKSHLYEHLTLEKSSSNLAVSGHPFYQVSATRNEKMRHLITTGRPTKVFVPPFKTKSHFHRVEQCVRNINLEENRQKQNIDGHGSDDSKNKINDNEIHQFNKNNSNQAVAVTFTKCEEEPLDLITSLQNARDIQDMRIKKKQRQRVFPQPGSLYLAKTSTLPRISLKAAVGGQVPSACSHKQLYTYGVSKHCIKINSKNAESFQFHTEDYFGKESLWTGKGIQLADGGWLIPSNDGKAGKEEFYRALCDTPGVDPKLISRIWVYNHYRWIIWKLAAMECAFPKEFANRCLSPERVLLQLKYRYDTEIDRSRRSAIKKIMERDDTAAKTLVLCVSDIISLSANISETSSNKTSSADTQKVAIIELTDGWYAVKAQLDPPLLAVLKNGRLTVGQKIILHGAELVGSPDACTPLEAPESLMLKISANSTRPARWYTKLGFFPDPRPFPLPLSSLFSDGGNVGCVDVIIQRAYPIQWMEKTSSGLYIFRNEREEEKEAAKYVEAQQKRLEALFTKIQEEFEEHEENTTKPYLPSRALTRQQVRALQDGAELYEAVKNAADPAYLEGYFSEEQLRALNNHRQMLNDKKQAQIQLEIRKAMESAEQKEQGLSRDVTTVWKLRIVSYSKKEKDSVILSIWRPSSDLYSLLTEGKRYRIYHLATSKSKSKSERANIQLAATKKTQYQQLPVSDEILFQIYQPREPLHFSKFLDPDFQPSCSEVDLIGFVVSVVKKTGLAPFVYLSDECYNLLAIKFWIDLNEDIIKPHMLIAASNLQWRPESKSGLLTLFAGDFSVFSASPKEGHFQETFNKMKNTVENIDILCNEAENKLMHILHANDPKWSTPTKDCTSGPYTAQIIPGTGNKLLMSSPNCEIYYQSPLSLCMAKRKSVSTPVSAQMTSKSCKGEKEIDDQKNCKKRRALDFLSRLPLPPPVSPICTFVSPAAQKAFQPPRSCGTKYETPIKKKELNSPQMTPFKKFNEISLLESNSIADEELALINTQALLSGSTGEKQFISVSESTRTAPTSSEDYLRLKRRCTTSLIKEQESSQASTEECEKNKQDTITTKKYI
UniProt P25454: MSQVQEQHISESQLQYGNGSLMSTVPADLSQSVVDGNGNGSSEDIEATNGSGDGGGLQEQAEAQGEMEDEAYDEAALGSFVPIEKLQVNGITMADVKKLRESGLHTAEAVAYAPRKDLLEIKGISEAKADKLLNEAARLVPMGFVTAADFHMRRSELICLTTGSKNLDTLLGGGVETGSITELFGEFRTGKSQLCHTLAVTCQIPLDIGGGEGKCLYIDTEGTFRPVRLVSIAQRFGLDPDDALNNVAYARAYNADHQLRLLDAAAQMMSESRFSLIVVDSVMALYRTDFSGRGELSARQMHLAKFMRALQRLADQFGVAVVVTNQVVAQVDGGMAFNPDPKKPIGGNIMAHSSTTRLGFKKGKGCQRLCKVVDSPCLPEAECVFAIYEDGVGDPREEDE

Columns and labels:
[1] = biological target: 2XMBP-tagged full-length BRCA2 (human), P51587; assay: pull-down; details: remark: other sources report otherwise
[2] = biological target: 2XMBP-tagged full-length BRCA2 (human), P51587; assay: pull-down; details: remark: other sources report otherwise; remark: listed apart in the source
[3] = biological target: 2XMBP-tagged full-length BRCA2 (human) (UniProt P51587); assay: pull-down
[4] = biological target: 2XMBP-tagged full-length BRCA2 (human) (UniProt P51587); assay: pull-down; remark: listed apart in the source
[5] = biological target: yeast Rad51 (endogenous) (S. cerevisiae (endogenous in PJ69-4α)) (UniProt P25454); assay: two-hybrid

Binder	binding [1]	binding [2]	binding [3]	binding [4]	binding [5]
HA-tagged RAD51B (full-length wild type) (protein, UniProt O15315-1 1-350) MGSKKLKRVGLSQELCDRLSRHQILTCQDFLCLSPLELMKVTGLSYRGVHELLCMVSRACAPKMQTAYGIKAQRSADFSPAFLSTTLSALDEALHGGVACGSLTEITGPPGCGKTQFCIMMSILATLPTNMGGLEGAVVYIDTESAFSAERLVEIAESRFPRYFNTEEKLLLTSSKVHLYRELTCDEVLQRIESLEEEIISKGIKLVILDSVASVVRKEFDAQLQGNLKERNKFLAREASSLKYLAEEFSIPVILTNQITTHLSGALASQADLVSPADDLSLSEGTSGSSCVIAALGNTWSHSVNTRLILQYLDSERRQILIAKSPLAPFTSFVYTIKEEGLVLQAYGNS	–	–	binds	binds	–
GAL4 AD-RAD51B (protein, UniProt O15315-1 1-350) MGSKKLKRVGLSQELCDRLSRHQILTCQDFLCLSPLELMKVTGLSYRGVHELLCMVSRACAPKMQTAYGIKAQRSADFSPAFLSTTLSALDEALHGGVACGSLTEITGPPGCGKTQFCIMMSILATLPTNMGGLEGAVVYIDTESAFSAERLVEIAESRFPRYFNTEEKLLLTSSKVHLYRELTCDEVLQRIESLEEEIISKGIKLVILDSVASVVRKEFDAQLQGNLKERNKFLAREASSLKYLAEEFSIPVILTNQITTHLSGALASQADLVSPADDLSLSEGTSGSSCVIAALGNTWSHSVNTRLILQYLDSERRQILIAKSPLAPFTSFVYTIKEEGLVLQAYGNS	–	–	–	–	binds

More lines, now with the values ahead:

binding [1]	binding [2]	binding [3]	binding [4]	binding [5]	Binder
binds	binds	–	–	–	HA-tagged XRCC2, O43543 1-280 (protein) MCSAFHRAESGTELLARLEGRSSLKEIEPNLFADEDSPVHGDILEFHGPEGTGKTEMLYHLTARCILPKSEGGLEVEVLFIDTDYHFDMLRLVTILEHRLSQSSEEIIKYCLGRFFLVYCSSSTHLLLTLYSLESMFCSHPSLCLLILDSLSAFYWIDRVNGGESVNLQESTLRKCSQCLEKLVNDYRLVLFATTQTIMQKASSSSEEPSHASRRLCDVDIDYRPYLCKAWQQLVKHRMFFSKQDDSQSSNQFSLVSRCLKSNSLKKHFFIIGESGVEFC
–	–	binds	binds	–	HA-tagged RAD51D (protein, UniProt O75771 1-328) MGVLRVGLCPGLTEEMIQLLRSHRIKTVVDLVSADLEEVAQKCGLSYKALVALRRVLLAQFSAFPVNGADLYEELKTSTAILSTGIGSLDKLLDAGLYTGEVTEIVGGPGSGKTQVCLCMAANVAHGLQQNVLYVDSNGGLTASRLLQLLQAKTQDEEEQAEALRRIQVVHAFDIFQMLDVLQELRGTVAQQVTGSSGTVKVVVVDSVTAVVSPLLGGQQREGLALMMQLARELKTLARDLGMAVVVTNHITRDRDSGRLKPALGRSWSFVPSTRILLDTIEGAGASGGRRMACLAKSSRQPTGFQEMVDIGTWGTSEQSATLQGDQT
–	–	binds	binds	–	HA-tagged XRCC3 (protein, UniProt O43542 1-346) MDLDLLDLNPRIIAAIKKAKLKSVKEVLHFSGPDLKRLTNLSSPEVWHLLRTASLHLRGSSILTALQLHQQKERFPTQHQRLSLGCPVLDALLRGGLPLDGITELAGRSSAGKTQLALQLCLAVQFPRQHGGLEAGAVYICTEDAFPHKRLQQLMAQQPRLRTDVPGELLQKLRFGSQIFIEHVADVDTLLECVNKKVPVLLSRGMARLVVIDSVAAPFRCEFDSQASAPRARHLQSLGATLRELSSAFQSPVLCINQVTEAMEEQGAAHGPLGFWDERVSPALGITWANQLLVRLLADRLREEEAALGCPARTLRVLSAPHLPPSSCSYTISAEGVRGTPGTQSH
